We go through two molecules from paper PMC8782721.

Protein sequences, listed by entry. Tags and fused reporters are not part of them.
UniProt Q13185: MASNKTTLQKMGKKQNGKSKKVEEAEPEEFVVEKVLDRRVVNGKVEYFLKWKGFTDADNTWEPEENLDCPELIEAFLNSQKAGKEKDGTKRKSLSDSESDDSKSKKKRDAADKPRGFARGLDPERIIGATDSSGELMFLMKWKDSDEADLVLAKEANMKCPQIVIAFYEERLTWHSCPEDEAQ
UniProt Q09028: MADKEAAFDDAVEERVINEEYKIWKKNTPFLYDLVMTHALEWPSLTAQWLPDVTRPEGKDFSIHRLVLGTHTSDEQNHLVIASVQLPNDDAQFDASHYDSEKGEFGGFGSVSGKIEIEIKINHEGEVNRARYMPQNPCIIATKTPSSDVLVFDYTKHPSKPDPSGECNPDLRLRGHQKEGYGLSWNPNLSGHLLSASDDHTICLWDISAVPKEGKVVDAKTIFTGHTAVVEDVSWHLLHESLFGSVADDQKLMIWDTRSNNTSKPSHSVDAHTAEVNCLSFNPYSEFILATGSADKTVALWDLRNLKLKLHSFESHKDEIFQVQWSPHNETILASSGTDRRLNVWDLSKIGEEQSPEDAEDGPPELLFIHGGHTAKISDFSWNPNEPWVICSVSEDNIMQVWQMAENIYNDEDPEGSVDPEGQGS

Results are given in words; binding and its absence hold for the method and conditions named. Binding seen in cells or lysates may run through a third protein. Some entries that bind do so weakly or less than the wild type.

The target of assay [1] is Chromobox homolog 3 (CBX3) (human (endogenous in A549 and H1299)) (UniProt Q13185). Put plainly: co-IP; whole cell lysates of A549 and H1299 cells incubated with Protein G agarose and primary antibody (CBX3, TRIM28, TRIM24 or RBBP4) or IgG; precipitates analysed by immunoblotting. A general note: Immunoblotting shows a protein as a band on a membrane.
Assay [2] has the same target. Briefly: proximity ligation; proximity ligation assay (PLA) in A549 cells.

With RBBP4 (from UniProt Q09028 1-425), the binding entry in assay [1] and in assay [2] was “binds” in each case.

B1: TRIM24 (protein, UniProt O15164 1-1050)
chain: MEVAVEKAVAAAAAASAAASGGPSAAPSGENEAESRQGPDSERGGEAARLNLLDTCAVCHQNIQSRAPKLLPCLHSFCQRCLPAPQRYLMLPAPMLGSAETPPPVPAPGSPVSGSSPFATQVGVIRCPVCSQECAERHIIDNFFVKDTTEVPSSTVEKSNQVCTSCEDNAEANGFCVECVEWLCKTCIRAHQRVKFTKDHTVRQKEEVSPEAVGVTSQRPVFCPFHKKEQLKLYCETCDKLTCRDCQLLEHKEHRYQFIEEAFQNQKVIIDTLITKLMEKTKYIKFTGNQIQNRIIEVNQNQKQVEQDIKVAIFTLMVEINKKGKALLHQLESLAKDHRMKLMQQQQEVAGLSKQLEHVMHFSKWAVSSGSSTALLYSKRLITYRLRHLLRARCDASPVTNNTIQFHCDPSFWAQNIINLGSLVIEDKESQPQMPKQNPVVEQNSQPPSGLSSNQLSKFPTQISLAQLRLQHMQQQVMAQRQQVQRRPAPVGLPNPRMQGPIQQPSISHQQPPPRLINFQNHSPKPNGPVLPPHPQQLRYPPNQNIPRQAIKPNPLQMAFLAQQAIKQWQISSGQGTPSTTNSTSSTPSSPTITSAAGYDGKAFGSPMIDLSSPVGGSYNLPSLPDIDCSSTIMLDNIVRKDTNIDHGQPRPPSNRTVQSPNSSVPSPGLAGPVTMTSVHPPIRSPSASSVGSRGSSGSSSKPAGADSTHKVPVVMLEPIRIKQENSGPPENYDFPVVIVKQESDEESRPQNANYPRSILTSLLLNSSQSSTSEETVLRSDAPDSTGDQPGLHQDNSSNGKSEWLDPSQKSPLHVGETRKEDDPNEDWCAVCQNGGELLCCEKCPKVFHLSCHVPTLTNFPSGEWICTFCRDLSKPEVEYDCDAPSHNSEKKKTEGLVKLTPIDKRKCERLLLFLYCHEMSLAFQDPVPLTVPDYYKIIKNPMDLSTIKKRLQEDYSMYSKPEDFVADFRLIFQNCAEFNEPDSEVANAGIKLENYFEELLKNLYPEKRFPKPEFRNESEDNKFSDDSDDDFVQPRKKRLKSIEERQLLK
Turning to B1, the binding entry in assay [1] and in assay [2] was “binds” each time.
